Values from PubChem BioAssay AID686938 (Drosophila RNAi Screening Center, 2013)
In all, the deposit lists about 23,000 reagents; this is an unselected part of those that have a named target and a result. In the full data, 75 (0.33%) were called active. 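Raw plate signals without normalisation; calls rest on plate z-scores that were not deposited; ratio present for only 364 wells.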 Entries without a mark were called inactive. The numbers tell different reagents against one gene apart. A plus sign joins genes that one reagent is predicted to hit. Not given: the dose of the treatment.

Purpose: 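Looking for CRAC channel components and the factors controlling them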 (primary screen)
Cells: Drosophila S2R+ cells
Knock-down reagent: long dsRNA against Drosophila genes, about 0.25 µg dsRNA per well, roughly 10,000 cells
Duration: 5 days of knock-down before the calcium assay
Conditions: thapsigargin (SERCA pump blocker) to empty calcium stores; entry signal taken 4 min after adding it
Read-out: 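Per-well fluo-4 fluorescence in two replicates, unnormalised, measured in resting cells and 4 min after store depletion by the SERCA blocker thapsigargin; ratio of the two present in few wells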
Scale: calcium entry signal: higher = stronger calcium signal after store depletion; entry to resting ratio: higher = more calcium entry relative to resting level; resting calcium signal: higher = higher resting calcium signal
Active means: 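Called when the plate z-score of the entry-to-rest ratio, mean of duplicates, falls below −3; wells with low overall dye signal (Fmax z below −2) or more than five off-targets excluded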
Calls: active = strongly reduced calcium entry; inactive = no strong reduction

target	reagent	calcium entry signal, replicate 1 (fluorescence units)	calcium entry signal, replicate 2 (fluorescence units)	entry to resting ratio	resting calcium signal, replicate 1 (fluorescence units)	resting calcium signal, replicate 2 (fluorescence units)
CG3071	1	3.50e7	3.83e7		1.63e7	1.72e7
CG18754	1	3.63e7	2.57e7		1.47e7	1.05e7
Cdk1	1	1.59e7			1.10e7	
CG1227	1	3.92e7	4.82e7		1.65e7	1.99e7
CG10939	1	2.31e7	2.10e7		1.09e7	9.78e6
CG10939	2	2.94e7	3.25e7		1.49e7	1.48e7
Trpm	1	2.39e7	2.07e7		1.10e7	9.58e6
Trpm	2	3.62e7	3.03e7		2.05e7	1.36e7
Irbp	1	3.03e7	3.10e7		1.57e7	1.59e7
Irbp	2	3.79e7	4.42e7		1.91e7	2.03e7
CG14277	1	3.34e7	5.23e7		1.58e7	2.04e7
CG11037	1	3.22e7	6.08e7		1.66e7	2.35e7
CG14607	1	4.73e7	4.38e7		1.85e7	1.98e7
CG7789	1	3.11e7	3.58e7		1.44e7	1.71e7
HisCl1	1	2.93e7	3.67e7		1.29e7	1.64e7
CG6665	1	3.58e7	4.05e7		1.69e7	1.98e7
uncNacbeta	1	2.31e7	1.88e7		1.17e7	1.03e7
CG8509	1	3.81e7	4.49e7		1.80e7	1.94e7
CG33461	1	4.37e7	3.21e7		2.50e7	1.56e7
CG1368	1	2.39e7	2.91e7		1.04e7	1.32e7
PolG1	1	4.84e7	3.53e7		2.17e7	1.46e7
Pect	1	4.35e7			2.37e7	
Pect	2	2.93e7 (active)	4.55e7		1.87e7	2.62e7
CG43331	1	3.08e7	5.02e7		1.59e7	2.31e7
TkR86C	1	3.33e7	3.20e7		1.66e7	1.59e7
Tpi	1	2.66e7	4.58e7		1.32e7	2.01e7
CG14965	1	3.99e7	2.49e7		2.70e7	1.14e7
Orct2	1	3.39e7	3.15e7		1.65e7	1.52e7
CG34301	1	4.03e7	5.10e7		1.91e7	2.68e7
CG10559	1	2.37e7	6.18e7		1.44e7	2.91e7
CG6429	1	2.03e7	3.46e7		1.20e7	1.68e7
ex	1	4.03e7			2.39e7	
CG14717	1	4.43e7	3.96e7		2.18e7	2.09e7
Sytalpha	1	4.95e7	3.22e7		2.13e7	1.51e7
eIF3d1	1	1.96e7 (active)	1.41e7		1.34e7	1.04e7
Zip42C.1	1	3.58e7	5.20e7		1.92e7	2.41e7
CG32213 + CG12519 + 825-Oak + 1 more	1	3.31e7	4.65e7		1.86e7	1.84e7
Grl36b	1	3.14e7	3.76e7		1.77e7	1.83e7
CG13377	1	3.96e7	5.49e7	2.2	1.82e7	2.37e7
CG43132 (retired record)	1	3.16e7	3.73e7		1.64e7	1.63e7
CG32645	1	4.20e7	6.57e7		2.01e7	2.97e7
CG32645	2	4.43e7	6.80e7		2.16e7	3.07e7
Lectin-galC1	1	5.00e7	5.05e7		2.51e7	2.10e7
sosie	1	2.43e7	3.74e7		1.47e7	1.57e7
sosie	2	4.08e7	3.35e7		2.23e7	1.61e7
nAChRalpha2	1	3.65e7	2.62e7		1.73e7	1.30e7
Magi	1	4.76e7			2.37e7	
Magi	2	4.55e7	4.82e7		2.12e7	2.19e7
IntS1	1	2.51e7			1.51e7	
CG8788	1	4.38e7	4.19e7		2.02e7	1.86e7
dtn	1	3.43e7	3.01e7		1.70e7	1.47e7
knk	1	2.77e7	2.12e7		1.45e7	1.09e7
SKIP	1	3.47e7	3.94e7		6.23e7	1.88e7
SKIP	2	4.32e7	4.54e7		6.78e7	2.11e7
SKIP	3	4.70e7	4.42e7		4.91e7	2.09e7
SKIP	4	2.94e7	4.94e7		1.46e7	2.46e7
SKIP	5	4.18e7	4.19e7		5.93e7	2.04e7
Gr93c	1	4.03e7	3.56e7		5.19e7	1.66e7

Reformatted: 4 of the entries above.
Cdk1: calcium entry signal, replicate 1 (fluorescence units) = 1.59e7; resting calcium signal, replicate 1 (fluorescence units) = 1.10e7
CG1227: calcium entry signal, replicate 1 (fluorescence units) = 3.92e7; calcium entry signal, replicate 2 (fluorescence units) = 4.82e7; resting calcium signal, replicate 1 (fluorescence units) = 1.65e7; resting calcium signal, replicate 2 (fluorescence units) = 1.99e7
CG10939 #1: calcium entry signal, replicate 1 (fluorescence units) = 2.31e7; calcium entry signal, replicate 2 (fluorescence units) = 2.10e7; resting calcium signal, replicate 1 (fluorescence units) = 1.09e7; resting calcium signal, replicate 2 (fluorescence units) = 9.78e6
CG10939 #2: calcium entry signal, replicate 1 (fluorescence units) = 2.94e7; calcium entry signal, replicate 2 (fluorescence units) = 3.25e7; resting calcium signal, replicate 1 (fluorescence units) = 1.49e7; resting calcium signal, replicate 2 (fluorescence units) = 1.48e7
